One molecule from PMC11939966 can be followed below.

Amino acid sequences for entries named in this document (tags omitted). A change or cut given only in a name is not applied to a line headed by its entry. Chains listed by the source or under a name are the forms on record and can include a tag or linker.
CNOT1(800–999) E893Q/Y900H (A5YKK6, form named): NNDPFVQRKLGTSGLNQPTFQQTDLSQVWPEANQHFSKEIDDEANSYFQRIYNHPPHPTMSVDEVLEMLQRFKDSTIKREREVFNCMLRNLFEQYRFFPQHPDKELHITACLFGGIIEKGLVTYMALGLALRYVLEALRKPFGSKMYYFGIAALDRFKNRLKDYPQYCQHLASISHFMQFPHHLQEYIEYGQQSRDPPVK
CNOT1(800–999) (A5YKK6, form named): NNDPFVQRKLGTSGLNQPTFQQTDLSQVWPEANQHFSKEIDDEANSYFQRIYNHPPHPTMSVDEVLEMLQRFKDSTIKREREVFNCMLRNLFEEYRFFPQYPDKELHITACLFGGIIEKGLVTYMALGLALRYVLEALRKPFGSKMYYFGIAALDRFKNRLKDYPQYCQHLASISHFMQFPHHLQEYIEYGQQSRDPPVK
CNOT1(800–999) E893A/Y900A (A5YKK6, form named): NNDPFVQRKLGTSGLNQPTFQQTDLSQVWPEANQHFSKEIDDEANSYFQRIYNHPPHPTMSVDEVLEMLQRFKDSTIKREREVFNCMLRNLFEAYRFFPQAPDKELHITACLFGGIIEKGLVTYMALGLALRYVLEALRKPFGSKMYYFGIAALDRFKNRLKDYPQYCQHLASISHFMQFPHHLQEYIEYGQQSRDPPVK

Assay [1] deals with CNOT1(800–999) E893Q/Y900H (human) (UniProt A5YKK6). Put plainly: HDX-MS; CNOT1(800–999) form at 2 μM incubated with TTP peptide at 3.3 μM, both in solution, compared with the apo state; deuteration 10 s to 2 h in 50 mM Tris, 150 mM NaCl, 2 mM DTT, 1 mM EDTA, pD 7.0; both purified.
In assay [2] the target is CNOT1(800–999) (human) (UniProt A5YKK6). The assay is described as above.
Assay [3] deals with CNOT1(800–999) E893A/Y900A (human) (UniProt A5YKK6). The experiment in a line: condition: TTP peptide at 3.3 μM, CNOT1 mutant at 2 μM; HDX-MS; CNOT1(800–999) form at 2 μM incubated with TTP peptide at 3.3 μM, both in solution, compared with the apo state; deuteration 10 s to 2 h in 50 mM Tris, 150 mM NaCl, 2 mM DTT, 1 mM EDTA, pD 7.0; both purified.

No constants are given. Whether binding was seen depends on the method and setting. Some entries that bind do so weakly or less than the wild type.

B1: human TTP peptide … (residues 312–326) (peptide)
peptide: APRRLPIFNRISVSE
As to B1, the binding result in assay [1] is given as “binds weakly”; in assay [2], “binds weakly”; in assay [3], “no binding”.
